The list is a part of this screen's results and no random one: it gathers tests that were run many times, whatever their T/C, doses with no T/C, and many T/C values between a quarter and a half above the control. Other doses and runs of a compound stand elsewhere. T/C: endpoint of the treated group in % of that of the vehicle group. Some doses have a count of surviving animals in place of a T/C: the source holds a T/C of zero for them, seemingly a mark for toxic or unscored doses. Some survivor counts are full or nearly so, which does not show that the dose was tolerated: the source hardly ever lists a survival T/C far under the control, and the zero likely stands for such cases as well. Counts of survivors are from the toxicity check (mostly the fifth day) where no day follows; animals may have died later. Schedules are NCI's codes, taken here to give the interval after Q, in days (D) or hours (H), and the number of doses after X. For survival time, the PubChem record calls one and a half times the control and up active, and a quarter to a half above the control has no call in these data; cut-offs in other NCI protocols can differ. Some T/C values carry the count of animals alive at the toxicity check (mostly the fifth day); without a count, all were alive then. Some entries were tested several times; the results are listed from low to high. Additions like (4×) stand for listed records that agree.
Test system: P388 leukemia ip, CD2F1 mice, survival T/C
Experiment: NCI In Vivo Anticancer Drug Screen. Data for tumor model P388 Leukemia (intraperitoneal) in CD2F1 (CDF1) mice
Conditions: T/C endpoint: median survival time, higher T/C = longer survival
[1] = dose: 200.0 mg/kg/injection, schedule: Q01DX009 (ip), vehicle: water

Compound: CO[C@H](/C(C)=C/C=C/C(C)=C/c1coc(C)n1)[C@H](C)[C@H]1C[C@@H](O)[C@@]2(C)O[C@H]2/C=C/[C@@H](C)[C@@H]2C[C@@H](CC(=O)O2)C[C@H]2O[C@@H]2C(=O)O1
- T/C (dose: 0.04 mg/kg/injection, schedule: Q01DX005 (ip), vehicle: Klucel (hydroxypropylcellulose) (HPC)): 133 % of control
- T/C (dose: 0.06 mg/kg/injection, schedule: Q01DX005 (ip), vehicle: Klucel (hydroxypropylcellulose) (HPC), evaluated on day 30): 143 % of control
- T/C (dose: 0.06 mg/kg/injection, schedule: Q01DX005 (ip), vehicle: Klucel (hydroxypropylcellulose) (HPC), evaluated on day 45): 129 % of control
- T/C (dose: 0.08 mg/kg/injection, schedule: Q01DX005 (ip), vehicle: Klucel (hydroxypropylcellulose) (HPC), evaluated on day 30): 140 % of control
- T/C (dose: 0.08 mg/kg/injection, schedule: Q01DX005 (ip), vehicle: Klucel (hydroxypropylcellulose) (HPC), evaluated on day 45): 134 % of control
- T/C (dose: 0.09 mg/kg/injection, schedule: Q01DX005 (ip), vehicle: Klucel (hydroxypropylcellulose) (HPC)): 133 % of control
- T/C (dose: 0.1 mg/kg/injection, schedule: Q01DX005 (ip), vehicle: Klucel (hydroxypropylcellulose) (HPC)): 137 and 149 % of control
- T/C (dose: 0.12 mg/kg/injection, schedule: Q01DX005 (ip), vehicle: Klucel (hydroxypropylcellulose) (HPC)): 147 % of control
- T/C (dose: 0.13 mg/kg/injection, schedule: Q01DX005 (ip), vehicle: Klucel (hydroxypropylcellulose) (HPC), evaluated on day 30): 142 and 157 % of control
- T/C (dose: 0.13 mg/kg/injection, schedule: Q01DX005 (ip), vehicle: Klucel (hydroxypropylcellulose) (HPC), evaluated on day 45): 132, 139, 143, 144, 150, 154 % of control
- T/C (dose: 0.13 mg/kg/injection, schedule: Q01DX005 (ip), vehicle: Klucel (hydroxypropylcellulose) (HPC), evaluated on day 60): 141 % of control
- T/C (dose: 0.16 mg/kg/injection, schedule: Q01DX005 (ip), vehicle: Klucel (hydroxypropylcellulose) (HPC), evaluated on day 30): 149 % of control
- T/C (dose: 0.16 mg/kg/injection, schedule: Q01DX005 (ip), vehicle: Klucel (hydroxypropylcellulose) (HPC), evaluated on day 45): 136, 144, 145, 150, 154, 160 % of control
- T/C (dose: 0.16 mg/kg/injection, schedule: Q01DX005 (ip), vehicle: Klucel (hydroxypropylcellulose) (HPC), evaluated on day 60): 148 % of control
- survivor count (dose: 0.16 mg/kg/injection, schedule: Q01DX005 (ip), vehicle: Klucel (hydroxypropylcellulose) (HPC)): 6 of 6
- T/C (dose: 0.2 mg/kg/injection, schedule: Q01DX005 (ip), vehicle: Klucel (hydroxypropylcellulose) (HPC), evaluated on day 30): 155 and 164 % of control
- T/C (dose: 0.2 mg/kg/injection, schedule: Q01DX005 (ip), vehicle: Klucel (hydroxypropylcellulose) (HPC), evaluated on day 45): 145 (2×), 149, 153, 160, 162 % of control
- T/C (dose: 0.2 mg/kg/injection, schedule: Q01DX005 (ip), vehicle: Klucel (hydroxypropylcellulose) (HPC), evaluated on day 60): 145 % of control
- T/C (dose: 0.3 mg/kg/injection, schedule: Q01DX005 (ip), vehicle: Klucel (hydroxypropylcellulose) (HPC), evaluated on day 30): 158 and 169 % of control
- T/C (dose: 0.3 mg/kg/injection, schedule: Q01DX005 (ip), vehicle: Klucel (hydroxypropylcellulose) (HPC), evaluated on day 45): 158, 165 (2×), 170 % of control
- T/C (dose: 0.3 mg/kg/injection, schedule: Q01DX005 (ip), vehicle: Klucel (hydroxypropylcellulose) (HPC), evaluated on day 60): 163 % of control
- survivor count (dose: 0.31 mg/kg/injection, schedule: Q01DX005 (ip), vehicle: Klucel (hydroxypropylcellulose) (HPC)): 6 of 6
- survivor count (dose: 0.62 mg/kg/injection, schedule: Q01DX005 (ip), vehicle: Klucel (hydroxypropylcellulose) (HPC)): 3 of 6
- survivor count (dose: 1.25 mg/kg/injection, schedule: Q01DX005 (ip), vehicle: Klucel (hydroxypropylcellulose) (HPC)): 2 of 6
- survivor count (dose: 2.5 mg/kg/injection, schedule: Q01DX005 (ip), vehicle: Klucel (hydroxypropylcellulose) (HPC)): 0 of 6
- survivor count (dose: 5.0 mg/kg/injection, schedule: Q01DX005 (ip), vehicle: Klucel (hydroxypropylcellulose) (HPC)): 0 of 6
- survivor count (dose: 10.0 micrograms/kg/injection, schedule: Q01DX005 (ip), vehicle: Klucel (hydroxypropylcellulose) (HPC)): 0 of 6
- T/C (dose: 80.0 micrograms/kg/injection, schedule: Q01DX005 (ip), vehicle: Klucel (hydroxypropylcellulose) (HPC)): 131 % of control
- T/C (dose: 160.0 micrograms/kg/injection, schedule: Q01DX005 (ip), vehicle: Klucel (hydroxypropylcellulose) (HPC)): 129 % of control

Compound: COCCC(=O)NC1CCCC[CH]1[Hg][Cl] (stereo not given)
- survivor count (dose: 50.0 mg/kg/injection, schedule: Q04DX003 (ip), vehicle: Klucel (hydroxypropylcellulose) (HPC)): 2 of 6
- survivor count (dose: 100.0 mg/kg/injection, schedule: Q04DX003 (ip), vehicle: Klucel (hydroxypropylcellulose) (HPC)): 0 of 6
- survivor count (dose: 200.0 mg/kg/injection, schedule: Q04DX003 (ip), vehicle: Klucel (hydroxypropylcellulose) (HPC)): 0 of 6
- survivor count (dose: 400.0 mg/kg/injection, schedule: Q04DX003 (ip), vehicle: Klucel (hydroxypropylcellulose) (HPC)): 0 of 6

Compound: CN1N=C(N)c2cn(C3OC(COP(=O)(O)O)C(O)C3O)c3ncnc1c23 (stereo not given)
- T/C (dose: 6.25 mg/kg/injection, schedule: Q01DX009 (ip), vehicle: water): 125 % of control
- T/C (dose: 12.5 mg/kg/injection, schedule: Q01DX009 (ip), vehicle: water): 125 [5 of 6 alive] and 129 % of control
- T/C (dose: 25.0 mg/kg/injection, schedule: Q01DX009 (ip), vehicle: water): 136 and 139 % of control
- T/C (dose: 38.0 mg/kg/injection, schedule: Q01DX005 (ip), vehicle: water): 128 % of control
- T/C (dose: 40.0 mg/kg/injection, schedule: Q01DX005 (ip), vehicle: saline): 125 % of control
- T/C (dose: 50.0 mg/kg/injection, schedule: Q01DX009 (ip), vehicle: water): 127 and 149 % of control [5 of 6 alive]
- T/C (dose: 54.0 mg/kg/injection, schedule: Q01DX005 (ip), vehicle: water, evaluated on day 45): 117, 119, 125 % of control (2×)
- T/C (dose: 54.0 mg/kg/injection, schedule: Q01DX005 (ip), vehicle: water, evaluated on day 60): 119, 123 (2×), 126, 129 % of control
- T/C (dose: 54.0 mg/kg/injection, schedule: Q01DX009 (ip), vehicle: water): 134 % of control
- T/C (dose: 80.0 mg/kg/injection, schedule: Q01DX005 (ip), vehicle: saline): 133 % of control
- T/C (dose: 80.0 mg/kg/injection, schedule: Q01DX005 (ip), vehicle: water, evaluated on day 45): 119, 124, 126, 163 % of control [9 of 10 alive]
- T/C (dose: 80.0 mg/kg/injection, schedule: Q01DX005 (ip), vehicle: water, evaluated on day 60): 122 [9 of 10 alive], 126, 127, 133, 135 % of control
- T/C (dose: 80.0 mg/kg/injection, schedule: Q01DX009 (ip), vehicle: water): 134 % of control
- T/C (dose: 100.0 mg/kg/injection, schedule: Q01DX009 (ip), vehicle: water): 127 and 131 % of control
- T/C (dose: 120.0 mg/kg/injection, schedule: Q01DX005 (ip), vehicle: water, evaluated on day 45): 119 [9 of 10 alive], 121 [9 of 10 alive], 125 % of control [9 of 10 alive]
- T/C (dose: 120.0 mg/kg/injection, schedule: Q01DX005 (ip), vehicle: water, evaluated on day 60): 116 [9 of 10 alive], 119 [7 of 10 alive], 120, 122, 125 % of control [9 of 10 alive]
- T/C (dose: 120.0 mg/kg/injection, schedule: Q01DX009 (ip), vehicle: water): 136 % of control [9 of 10 alive]
- survivor count (dose: 180.0 mg/kg/injection, schedule: Q01DX005 (ip), vehicle: water): 2 of 10
- T/C [1]: 139 % of control [4 of 6 alive]
- survivor count [1]: 1 of 6
- survivor count (dose: 400.0 mg/kg/injection, schedule: Q01DX009 (ip), vehicle: water): 0 of 6

Compound: C=C(C)C1CC=C(C)C(CCC2C(=C)CCC3C(C)(C)C(OC4OC(CO)C(O)C(O)C4NC(C)=O)CCC23C)C1(C)CCC(=O)O (stereo not given)
- survivor count (dose: 286.0 mg/kg/injection, schedule: Q01DX005 (ip), vehicle: Klucel (hydroxypropylcellulose) (HPC)): 0 of 6

Compound: C/C(=N\O)c1cc(/C(C)=N/O)cc(/C(C)=N/O)c1
- survivor count (dose: 200.0 mg/kg/injection, schedule: Q01DX009 (ip), vehicle: saline): 4 of 6

Compound: CCn1c(C)nc([N+](=O)[O-])c1Sc1ncn[nH]1
- T/C (dose: 100.0 mg/kg/injection, schedule: Q01DX005 (ip), vehicle: Klucel (hydroxypropylcellulose) (HPC)): 125 % of control
- T/C (dose: 200.0 mg/kg/injection, schedule: Q01DX005 (ip), vehicle: Klucel (hydroxypropylcellulose) (HPC)): 131 [4 of 6 alive] and 137 % of control [4 of 6 alive]

Compound: N#C/C(=N\Nc1ccc(Cl)cc1)C(=O)C1CC1
- survivor count (dose: 120.0 mg/kg/injection, schedule: Q01DX005 (ip), vehicle: Klucel (hydroxypropylcellulose) (HPC)): 0 of 6
- survivor count (dose: 240.0 mg/kg/injection, schedule: Q01DX005 (ip), vehicle: Klucel (hydroxypropylcellulose) (HPC)): 0 of 6
